Source: patent US20100136137A1, “THERAPEUTIC COMBINATION OF A PANHER/VEGFR2 KINASE INHIBITOR AND A PLATINUM COMPOUND” (Bristol-Meyers Squibb Company, priority 2006, published 2010)
Some results were stated once for a whole list of compounds, not compound by compound.

Tested on: A549 cells
Assay: Growth inhibition of A549 cells by Compound I and cisplatin, alone and combined
Assay type: cell-based
Conditions: either compound administered alone

With COc1cccc(Nc2ncnn3ccc(CN4CC[C@@H](N)[C@H](O)C4)c23)c1 [Compound I, 4-Amino-1-[[4-[(3-methoxyphenyl)amino]pyrrolo [2,1-f][1,2,4]triazin-5-yl]methyl]-(3R,4R)-3-piperidinol] the growth inhibitory effect was 10-15%.
